Earlier results, collected in patent US20200038338A1, “LONG TERM DRUG DELIVERY BY TATTOO” (priority 2018, published 2020).
At least one compound was matched to its structure with a doubt left.

System: androgenetic alopecia (hair loss)
Settings: minoxidil microinjections once a month for four months; cited from earlier work

In the case of `Nc1cc(N2CCCCC2)nc(N)[n+]1[O-]` [minoxidil], the documentation of improvement is given as “no objective documentation of improvement”.
